The assay deals with FLAG‐4×Myc‐tagged AMV CP (alfalfa mosaic virus). Put plainly: affinity purification with mass spectrometry; FLAG‐4×Myc‐CPAMV coexpressed with NPR1‐YFP in N. benthamiana leaves, affinity purified at 2 dpi, MS/MS; control: FLAG‐4×Myc tag coexpressed with NPR1‐YFP.

These are yes or no findings as the source states them, for the method shown. In cells and extracts the contact can be indirect. These calls come from enrichment with a bait or labelling near it, and not all partners need be listed.

B1: 26S proteasome subunit alpha type 1 (PAF1) (protein, UniProt Q8H1Y2 1-274)
chain: MFRNQYDTDVTTWSPAGRLFQVEYAMEAVKQGSAAIGLRSKTHVILACVNKANSELSSHQKKIFKVDDHIGVAIAGLTADGRVLSRYMRNECINYSYAYESPLPVGRLVVQLADKAQVCTQRSWKRPYGVGLLVGGLDESGAHLYYNCPSGNYFEYQAFAIGSRSQAAKTYLERRFETFMDSSRETLLKDALFALRETLQGEKLTSTNCTVAVVGVGEAFHMLDKETIQALINEFEIAGEEAPAAAPDEAGSDEPAAAPEEGAPADQGAAPMDI
Take B1: the binding result was “binds”.

(Values after publication PMC12060747.)
